Reference: patent US6600072B2, “Substituted 1-naphthoylguanidines, process for their preparation, their use as a medicament or diagnostic , and medicament containing them” (Aventis Pharma Deutschland GmbH, priority 1996, dated 2003)
At least one compound was matched to its structure with a doubt left.

Amino acid sequences for entries named in this document (tags omitted).
UniProt P23791, whole entry: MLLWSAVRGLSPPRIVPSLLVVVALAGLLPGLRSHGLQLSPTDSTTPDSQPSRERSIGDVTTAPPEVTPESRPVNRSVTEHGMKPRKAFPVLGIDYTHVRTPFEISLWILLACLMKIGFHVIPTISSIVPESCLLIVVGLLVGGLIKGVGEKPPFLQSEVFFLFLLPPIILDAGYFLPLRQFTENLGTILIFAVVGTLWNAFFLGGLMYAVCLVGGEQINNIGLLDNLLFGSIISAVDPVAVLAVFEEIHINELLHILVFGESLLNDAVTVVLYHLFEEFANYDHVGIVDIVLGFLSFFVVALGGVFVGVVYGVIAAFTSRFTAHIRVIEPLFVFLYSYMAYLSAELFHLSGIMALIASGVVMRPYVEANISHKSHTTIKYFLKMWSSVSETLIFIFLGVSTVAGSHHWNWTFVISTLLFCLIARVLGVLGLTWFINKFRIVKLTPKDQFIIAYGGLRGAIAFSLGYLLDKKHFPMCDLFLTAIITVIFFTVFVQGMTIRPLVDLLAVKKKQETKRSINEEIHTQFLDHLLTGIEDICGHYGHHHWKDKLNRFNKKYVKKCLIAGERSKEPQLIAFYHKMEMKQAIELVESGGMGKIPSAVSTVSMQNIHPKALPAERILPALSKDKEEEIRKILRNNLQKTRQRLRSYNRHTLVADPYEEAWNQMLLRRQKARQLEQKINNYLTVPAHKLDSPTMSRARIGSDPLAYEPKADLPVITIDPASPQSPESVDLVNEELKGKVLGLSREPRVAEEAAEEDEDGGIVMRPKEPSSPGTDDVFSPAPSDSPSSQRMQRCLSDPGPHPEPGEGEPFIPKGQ

Molecular target: T1, Na^+/H^+ exchanger of rabbit erythrocytes (Oryctolagus cuniculus, UniProt P23791)
T1 construct: determine the Na^+ influx into the erythrocytes via Na^+/H^+ exchange by flame photometry; endogenous in cells; host or cells: erythrocytes in whole blood of cholesterol-fed White New Zealand rabbits
Test: Inhibition of the Na+/H+ exchanger of rabbit erythrocytes (amiloride-sensitive sodium influx, flame photometry)
Assay type: cell-based
Conditions: pH 7.4, 37° C., hyperosmolar salt-sucrose medium
Text: Inhibition of the Na^+/H^+ exchanger of rabbit erythrocytes:
White New Zealand rabbits (Ivanovas) received a standard diet containing 2% cholesterol for six weeks in order to activate Na^+/H^+ exchange and thus to be able to determine the Na^+ influx into the erythrocytes via Na^+/H^+ exchange by flame photometry. The blood was taken from the auricular arteries and rendered uncoagulable by means of 25 lU/ml of potassium heparin. A part of each sample was used for the duplicate determination of the hematocrit by centrifugation. Aliquots of 100 μl in each case were used to measure the Na^+ starting content of the erythrocytes.
In order to determine the amiloride-sensitive sodium influx, 100 μl of each blood sample were incubated at pH 7.4 and 37° C. in 5 ml in each case of a hyperosmolar salt-sucrose medium (mmol/l: 140 NaCl, 3 KCl, 150 sucrose, 0.1 ouabain, 20 trishydroxymethylaminomethane). The erythrocytes were then washed three times with ice-cold MgCl2-ouabain solution (mmol/l: 112 MgCl2, 0.1 ouabain) and hemolyzed in 2.0 ml of distilled water. The intracellular sodium content was determined by flame photometry.
The net Na^+ influx was calculated from the difference between sodium starting values and the sodium content of the erythrocytes after incubation. […] The sodium influx was also determined in this manner in the case of the compounds according to the invention.

**Q.** With `Cl.N=C(N)NC(=O)c1c(OCc2ccccc2)ccc2ccccc12` [Example 19, 2-Benzyloxy-1-naphthoylguanidine Hydrochloride] as the compound, how does the “IC50, inhibition of the Na^+/H^+ exchanger” value read?
**A.** 0, 3 μmol/l
